Record: PubChem BioAssay AID686937 (Drosophila RNAi Screening Center, 2013)
The deposit covers about 23,000 reagents; this is an unselected part of those that have a named target and a result. 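Reduced-secretion tags in replicate 1 do not always agree with the z-scores; no criterion for assigning the tags was given.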 Reagents against one gene are numbered here. A plus sign joins genes that one reagent is predicted to hit. Further read-outs or replicates are left out here. Reagent sequences are not shown. Not given: the amount of reagent.

Aim: 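Genes whose loss weakens secretory pathway function in fly cells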 (primary screen)
Cells: Drosophila S2 cells expressing secreted horseradish peroxidase
Reagent: long dsRNA against Drosophila genes
Timing: about 5.5 days (5 days dsRNA, then 12 h reporter induction)
Treatment: reporter expression induced after 5 days of dsRNA, read 12 h later; inducer not stated
Read-out: 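Chemiluminescent measurement of peroxidase in the medium 12 h after reporter induction, following 5 days of dsRNA, given as a z-score per plate; higher means more secretion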
Reading the numbers: z-score: higher = more reporter secreted into medium

z-score, replicate 1 | z-score, replicate 2 | z-score, replicate 3 | predicted target | dsRNA no.
0.54 | 0.43 | – | Sgs3 | 1
0.28 | 0.3 | – | Rpt6R | 1
-0.07 | 0.22 | – | CR31427 | 1
0.73 | 0.5 | – | yps | 1
0.28 | 0.22 | – | Timp | 1
-0.43 | -0.26 | – | CG17002 | 1
-0.21 | 0.19 | – | CG14929 | 1
0.43 | 0.45 | – | Edg84A | 1
0.26 | -0.15 | – | Pgant3 | 1
0.2 | 0.22 | – | SLC22A | 1
0.21 | 0.43 | – | SLC22A | 2
0.42 | 0.62 | – | CalpC | 1
0.02 | 0.34 | – | CG13955 | 1
-0.12 | 0.57 | – | CG8420 | 1
0.29 | 0.18 | – | GCS1 | 1
-0.91 | -0.33 | – | CG11698 | 1
0.43 | -0.01 | – | qvr | 1
0.51 | 0.39 | – | CG32188 | 1
1.94 | 0.03 | – | CG31549 | 1
-0.29 | -1.12 | – | Smyd5 | 1
0 | -0.06 | – | CG13724 | 1
0.24 | -0.45 | – | Coq9 | 1
0.2 | 0.23 | – | CG7879 | 1
0.36 | 0.45 | – | CG42726 + CG42727 | 1
0.8 | 0.31 | – | Or82a | 1
-2.09 | -1.93 | – | TfIIA-L | 1
-0.61 | -1.22 | – | CG14440 | 1
0.17 | 0.32 | – | Naa30B | 1
0.19 | 0.3 | – | lbe | 1
0.07 | -0.22 | – | lark | 1
-0.04 | -1.13 | – | Ccp84Ab | 1
0.27 | 0.43 | – | CG5770 | 1
0.41 | 0.31 | – | CG8219 | 1
0.4 | 0.44 | 0.55 | CG17574 | 1
0.38 | 0.78 | – | CG2909 | 1

The list goes on (12 carried over from the part before).
z-score, replicate 1 | z-score, replicate 2 | z-score, replicate 3 | predicted target | dsRNA no.
0.36 | 0.45 | – | CG42726 + CG42727 | 1
0.8 | 0.31 | – | Or82a | 1
-2.09 | -1.93 | – | TfIIA-L | 1
-0.61 | -1.22 | – | CG14440 | 1
0.17 | 0.32 | – | Naa30B | 1
0.19 | 0.3 | – | lbe | 1
0.07 | -0.22 | – | lark | 1
-0.04 | -1.13 | – | Ccp84Ab | 1
0.27 | 0.43 | – | CG5770 | 1
0.41 | 0.31 | – | CG8219 | 1
0.4 | 0.44 | 0.55 | CG17574 | 1
0.38 | 0.78 | – | CG2909 | 1
-0.1 | 0.22 | – | CG9426 | 1
0.28 | 0.2 | – | Grl43a | 1
0.11 | 0.48 | – | CG12299 | 1
0.13 | -0.02 | – | cv-d | 1
-0.15 | -0.47 | – | cv-d | 2
0.3 | 0.29 | – | cv-d | 3
0.34 | -0.22 | – | mRpL9 | 1
0.24 | 0.01 | – | CG4611 | 1
0.24 | 0.4 | – | CG8086 | 1
0.26 | 0.36 | – | CG8086 | 2
0.7 | 0.45 | – | Ge-1 | 1
0.57 | 0.04 | – | CG32845 | 1
-0.32 | 0.23 | – | GluRIIA | 1
-0.41 | 0.05 | -0.26 | CG34002 | 1
-10.8 | 0.4 | – | CG13426 | 1
0.12 | 0.21 | – | CG34265 | 1
0.19 | 0.11 | – | Atat | 1
0.13 | -0.02 | – | ng2 | 1
-1.38 | -0.79 | – | Vps36 | 1
-0.68 | 0.09 | – | CG31141 | 1
0.19 | -0.05 | – | CG17648 | 1
0.65 | 0.45 | – | sfl | 1
0.16 | 0.15 | – | sfl | 2
0.38 | 0.36 | – | Parp16 | 1
0.23 | 0.3 | – | CG30037 | 1
-6.54 | 0.38 | 0.52 | CG1636 | 1
0.53 | 0.8 | – | Fer1 | 1
-0.1 | -0.28 | – | Fer1 | 2
0.41 | 0.01 | – | yem | 1
0.57 | 0.55 | – | yem | 2
0.62 | 0.51 | – | Or33b | 1
0.35 | 0.36 | – | Klp54D | 1
0.07 | 0.11 | – | CG9135 | 1
0.17 | 0.39 | – | eIF3j | 1
0.33 | 0.58 | – | gb | 1
0.5 | 0.3 | 0.59 | Rgk3 | 1
0.26 | 0.59 | – | Rgk3 | 2
-0.51 | -0.05 | – | Rgk3 | 3
0 | 0.34 | – | Rgk3 | 4
0.33 | 0.07 | – | Mmp1 | 1
-3.47 | -1.93 | – | ncm | 1
0.18 | 0.25 | – | CG5937 | 1
0.24 | 0.3 | – | CG9143 | 1
0.1 | 0.33 | – | Pfk | 1
0.3 | 0.19 | – | Ir60b | 1
0.49 | 0.47 | – | CG34330 | 1
0.4 | 0.51 | – | CG33255 (retired record) + CR42842 + hpRNA:CR32205 + 1 more | 1
-0.1 | -0.52 | – | lncRNA:CR31526 | 1
0.33 | 0.37 | – | VhaM9.7-c | 1
0.09 | 0.55 | – | AOX4 | 1
0.31 | 0.32 | – | CG5916 | 1
0.55 | 0.66 | – | CG14683 | 1
0.38 | 0.42 | – | Arts + Apl | 1
0.36 | -0.06 | – | PSMG1 | 1
0.31 | 0.35 | – | Tsp42Ei | 1
0.13 | 0.24 | – | goe | 1
0.13 | 0.39 | – | TwdlS | 1
0.15 | 0.1 | – | Cyp6a15Psi | 1
-0.24 | 0.05 | – | CG4440 | 1
0.52 | 0.25 | – | Ten-a | 1
-2.93 | -2.52 | – | Ten-a | 2
0.36 | 0.08 | – | Ten-a | 3
0.43 | 0.66 | – | Ten-a | 4
0.32 | 0.28 | – | Ten-a | 5
0.28 | 0.48 | – | Ten-a | 6
0.46 | 0.63 | – | Ten-a | 7
1.01 | 1.56 | – | Ten-a | 8
0.11 | 0.3 | – | per | 1
-1.09 | -1.35 | – | Sec22 + CG13358 | 1
